These are yes or no findings as the source states them, for the method shown. Some binding calls cover weakened binding; strength is not graded here.
Target: 重组人GPC3胞外区抗原 (human) (UniProt P51654)
Experiment: ELISA, coated antigen (Fig. 1A)

Amino acid sequences for entries named in this document (tags omitted). Residues count along the entry.
UniProt P51654, residues 25-559: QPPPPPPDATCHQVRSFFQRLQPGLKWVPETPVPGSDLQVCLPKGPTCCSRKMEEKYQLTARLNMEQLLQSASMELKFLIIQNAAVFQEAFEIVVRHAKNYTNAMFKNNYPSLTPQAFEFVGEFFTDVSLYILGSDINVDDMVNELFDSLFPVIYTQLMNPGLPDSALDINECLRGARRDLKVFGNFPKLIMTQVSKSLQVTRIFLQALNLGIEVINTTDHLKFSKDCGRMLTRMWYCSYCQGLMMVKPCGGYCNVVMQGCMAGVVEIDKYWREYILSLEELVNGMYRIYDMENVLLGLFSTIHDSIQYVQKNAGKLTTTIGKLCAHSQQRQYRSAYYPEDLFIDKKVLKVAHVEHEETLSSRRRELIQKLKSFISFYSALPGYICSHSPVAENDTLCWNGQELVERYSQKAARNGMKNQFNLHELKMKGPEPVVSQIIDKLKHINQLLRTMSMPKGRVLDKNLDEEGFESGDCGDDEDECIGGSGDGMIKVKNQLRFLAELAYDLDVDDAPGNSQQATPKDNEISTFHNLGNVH

B1: 人源GPC3抗体10C7 (antibody, V domains shown)
VH: QVQLVQSGAEVKKPGASVKLSCKASGYTFTDYEMHWVKQTPGKGLKWIGALDPKTGDTAYAQKFQGRATLTADTSTDTAYMELSSLRSEDSAVYYCTRFYSYTYWGQGTLVTVSS
VL: DIVLTQSPLSLTVTPGEPASISCRSSESLVHSNGNTYLSWLQQRPGQPPRLLIYKISNRFSGVPDRFSGSGAGTDFTLKISRVEAEDVGVYYCTQATQFPYTFGQGTKVEIK
Q: How did the binding turn out when B1 was run?
A: binds

— patent publication CN113354737A
